PubChem BioAssay AID1224830 | NIAID | 2016
Screen: 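Genes whose knock-down alters the TNF-alpha reporter response to LPS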 (primary screen). Cells: human THP-1 monocytic leukaemia cells, TNF dual-luciferase reporter clone, PMA-differentiated to macrophage-like cells. Reagent: siRNA pool against human genes, 50 nM. Time to read-out: LPS for 4 h, given about 3 days after siRNA transfection. Treatment: bacterial LPS (TLR4 ligand), 10 ng/ml. Read-out: 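Ratio of firefly to renilla light, scaled to the plate median and expressed as a robust z-score per replicate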. Scale: TNF reporter robust z-score: higher = stronger TNF reporter response to LPS. Hit rule: 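Each well counts as active if its z-score is over 2.8 or under -1.5; controls are left without a call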.
Shown is an unselected part of about 18,000 reagents tested. About 2,900 of all reagents (16%) count as active. 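Calls are made per well; low scores hint the gene aids the LPS response, high scores that it dampens it.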 Repeated entries: four replicate wells of each siRNA pool.

| gene | TNF reporter robust z-score | call |
| --- | --- | --- |
| NINJ2 | 0.36 | inactive |
| NINJ2 | 1.29 | inactive |
| NINJ2 | 0.74 | inactive |
| NINJ2 | 2.62 | inactive |
| NDUFAF2 | -0.67 | inactive |
| NDUFAF2 | 0.39 | inactive |
| NDUFAF2 | -0.74 | inactive |
| NDUFAF2 | 0.17 | inactive |
| ABCB10 | -1.18 | inactive |
| ABCB10 | -1.22 | inactive |
| ABCB10 | -1.43 | inactive |
| ABCB10 | -0.84 | inactive |
| GPR82 | -0.88 | inactive |
| GPR82 | 1.44 | inactive |
| GPR82 | 0.09 | inactive |
| GPR82 | -0.15 | inactive |
| ZNF627 | 1.56 | inactive |
| ZNF627 | 3.35 | active |
| ZNF627 | 0.38 | inactive |
| ZNF627 | 2.36 | inactive |
| GARIN5A | 0.58 | inactive |
| GARIN5A | 0.68 | inactive |
| GARIN5A | 0.73 | inactive |
| GARIN5A | 0.08 | inactive |
| CEBPA | -0.76 | inactive |
| CEBPA | -0.28 | inactive |
| CEBPA | -0.38 | inactive |
| CEBPA | -0.55 | inactive |
| CEP44 | -0.04 | inactive |
| CEP44 | 0.37 | inactive |
| CEP44 | 1.17 | inactive |
| CEP44 | 0.04 | inactive |
| TMEM69 | -1.29 | inactive |
| TMEM69 | -0.29 | inactive |
| TMEM69 | -0.85 | inactive |
| TMEM69 | 0.06 | inactive |
| SYT5 | -0.94 | inactive |
| SYT5 | -1.13 | inactive |
| SYT5 | -1.18 | inactive |
| SYT5 | -0.77 | inactive |
| AK3 | -0.26 | inactive |
| AK3 | -0.55 | inactive |
| AK3 | -0.62 | inactive |
| AK3 | -0.15 | inactive |
| KIR3DL3 | 0.47 | inactive |
| KIR3DL3 | -1.28 | inactive |
| KIR3DL3 | -1.05 | inactive |
| KIR3DL3 | -0.57 | inactive |
| SIMC1 | 1.09 | inactive |
| SIMC1 | 0.25 | inactive |
| SIMC1 | 0.3 | inactive |
| SIMC1 | 0.18 | inactive |
| PEX19 | -0.88 | inactive |
| PEX19 | -0.42 | inactive |
| PEX19 | -1.31 | inactive |
| PEX19 | 0.02 | inactive |
| BPNT2 | 1.92 | inactive |
| BPNT2 | 2.91 | active |
| BPNT2 | 1.11 | inactive |
| BPNT2 | 2.03 | inactive |
| PLK3 | -0.79 | inactive |
| PLK3 | -0.29 | inactive |
| PLK3 | 2.06 | inactive |
| PLK3 | -0.58 | inactive |
| DCPH1 | 1.5 | inactive |
| DCPH1 | 0.61 | inactive |
| DCPH1 | 0.75 | inactive |
| DCPH1 | 1.67 | inactive |
| ITGA2 | -0.09 | inactive |
| ITGA2 | 0.78 | inactive |
| ITGA2 | -0.11 | inactive |
| ITGA2 | 0.68 | inactive |
| WRNIP1 | 2.33 | inactive |
| WRNIP1 | 0.17 | inactive |
| WRNIP1 | 2.39 | inactive |
| WRNIP1 | 1.59 | inactive |

11 entries from above in another layout:
CEBPA — TNF reporter robust z-score = -0.38; call = inactive
CEBPA — TNF reporter robust z-score = -0.55; call = inactive
CEP44 — TNF reporter robust z-score = -0.04; call = inactive
CEP44 — TNF reporter robust z-score = 0.37; call = inactive
CEP44 — TNF reporter robust z-score = 1.17; call = inactive
CEP44 — TNF reporter robust z-score = 0.04; call = inactive
TMEM69 — TNF reporter robust z-score = -1.29; call = inactive
TMEM69 — TNF reporter robust z-score = -0.29; call = inactive
TMEM69 — TNF reporter robust z-score = -0.85; call = inactive
TMEM69 — TNF reporter robust z-score = 0.06; call = inactive
SYT5 — TNF reporter robust z-score = -0.94; call = inactive
